Measurements as given in article PMC8844925.
Construct, isoform or probe ends are uncertain for at least one entry. A negative result means that nothing was seen under these conditions. Where a protein sequence is shown, tags need not be part of it. The comparison behind a weaker result is the experiment's own reference, which may not be listed here.

Molecular target: T1, His6-MrpC (UniProt Q1D244)
T1 sequence (looked up, limits assumed): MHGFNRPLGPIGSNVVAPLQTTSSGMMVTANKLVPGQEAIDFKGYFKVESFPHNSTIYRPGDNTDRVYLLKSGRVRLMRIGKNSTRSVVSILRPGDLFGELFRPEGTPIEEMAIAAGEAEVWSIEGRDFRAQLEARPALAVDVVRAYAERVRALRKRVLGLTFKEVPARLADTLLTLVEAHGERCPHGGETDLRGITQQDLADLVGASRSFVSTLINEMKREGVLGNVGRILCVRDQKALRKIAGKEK
Experiment: EMSA
Conditions: 10 mM Tris pH 8.0, 50 mM KCl, 1 mM DTT, 10 ug/mL BSA, 10% glycerol, 0.5 ug herring sperm DNA in 10 ul, 15 min at 20 C, 5% PAGE in 0.5x TBE, recombinant protein, protein details: His6, label: Hex, probe letters rebuilt from the primers and the genome

[1] = 10 nM probe, 1.0 uM MrpC, only one shifted band (WT two)

**Q.** Does “GCACCACTCCGCTTCATTCGGCTGCTGCGAAATGGCAGGCCGAAAGTCTCGGGTGCCACGCCCTTCCGTGTGCTCCCAACGCCCCTGCGCCCCACGCGCACCCGCCGCCGCCCGGTCCTGCAAGCACACCCCAACGCCCACAACCTTCACCCGAGACCTCCGGCTGCCAAGCCTGTCAGGCTCCGCGAGACGAGGCCTTTCCCCGTCATCCGTGAGCATGGTGCGGGAGCAAGCACCATGCCCCGCGGTGGGGGAGGGCAGTCAGAGTGTTTCCGGGCGGTTGCACACCCTCTGCGTCGCCCTGTTGTACAGGGTCGGAAGACGTTGCAGCGCGCTGAGGGGCAAACCGGTAGATATTCCCGTGCGCGGGCGATTCCTCGGTGGCCGCGCGACGGGTCGCTAGCGTCGGGTGCTGAACTGCATGCGGCGGCCGCCCATGGGGGGCATGACCGGCGGCGGA (double strand) [PdmxB BS3*]” bind (6 nM probe, bound as WT)?
**A.** binds

**Q.** Does “GCACCACTCCGCTTCATTCGGCTGCTGCGAAATGGCAGGCCGAAAGTCTCGGGTGCCACGCCCTTCCGTGTGCTCCCAACGCCCCTGCGCCCCACGCGCACCCGCCGCCGCCCGGTCCTGCAAGCACACCCCAACGCCCACAACCTTCACCCGAGACCTCCGGCTGCCAAGCCTGTCAGGCTCCGCGAGACGAGGCCTTTCCCCGTCATCCGTGAGCATGGTGCGGGAGCAAGCACCATGCCCCGCGGTGGGGGAGGGCAGTCAGAGTGTTTCCGGGCGGTTGCACACCCTCTGCGTCGCCCTGTTGTACAGGGTCGGAAGACGTTGCAGCGCGCTGAGGGGCAAACCGGTAGATATTCCCGTGCGCGGGCGGACGCTCGGTGGCCGCGCGACGGGTCGCTAGCGTCGGGTGCTGAACTGCATGCGGCGGCCGCCCATGGGGGGCATGACCGGCGGCGGA (double strand) [PdmxB WT]” bind (6 nM probe, one shifted band)?
**A.** binds

**Q.** Does “GCACCACTCCGCTTCATTCGGCTGCTGCGAAATGGCAGGCCGAAAGTCTCGGGTGCCACGCCCTTCCGTGTGCTCCCAACGCCCCTGCGCCCCACGCGCACCCGCCGCCGCCCGGTCCTGCAAGCACACCCCAACGCCCACAACCTTCACCCGAGACCTCCGGCTGCCAAGCCTGTCAGGCTCCGCGAGACGAGGCCTTTCCCCGTCATCCGTGAGCATGGTGCGGGAGCAAGCACCATGCCCCGCGGTGGGGGAGGGCAGTCAGAGTGTTTCCGGGCGGTTGCACACCCTCTGCGTCGCCCTGTTGTACAGGGTCGGAAGACGTTGCAGCGCGCTGAGGGGCAAACCGGTAGATATTCCCGTGCGCGGGCGGACGCTCGGTGGCCGCGCGACGGGTCGCTAGGAATGGGTGCTGAACTGCATGCGGCGGCCGCCCATGGGGGGCATGACCGGCGGCGGA (double strand) [PdmxB BS4*]” bind (6 nM probe)?
**A.** no binding

**Q.** Does “GCACCACTCCGCTTCATTCGGCTGCTGCGAAATGGCAGGCCGAAAGTCTCGGGTGCCACGCCCTTCCGTGTGCTCCCAACGCCCCTGCGCCCCACGCGCACCCGCCGCCGCCCGGTCCTGCAAGCCTTACCCAACGCCCACAACCTTCACCCGAGACCTCCGGCTGCCAAGCCTGTCAGGCTCCGCGAGACGAGGCCTTTCCCCGTCATCCGTGAGCATGGTGCGGGAGCAAGCACCATGCCCCGCGGTGGGGGAGGGCAGTCAGAGTGTTTCCGGGCGGTTGCACACCCTCTGCGTCGCCCTGTTGTACAGGGTCGGAAGACGTTGCAGCGCGCTGAGGGGCAAACCGGTAGATATTCCCGTGCGCGGGCGGACGCTCGGTGGCCGCGCGACGGGTCGCTAGCGTCGGGTGCTGAACTGCATGCGGCGGCCGCCCATGGGGGGCATGACCGGCGGCGGA (double strand) [PdmxB BS1*]” bind (6 nM probe, bound as WT)?
**A.** binds

**Q.** Does “GCACCACTCCGCTTCATTCGGCTGCTGCGAAATGGCAGGCCGAAAGTCTCGGGTGCCACGCCCTTCCTAAGGCTCCCAACGCCCCTGCGCCCCACGCGCACCCGCCGCCGCCCGGTCCTGCAAGCACACCCCAACGCCCACAACCTTCACCCGAGACCTCCGGCTGCCAAGCCTGTCAGGCTCCGCGAGACGAGGCCTTTCCCCGTCATCCGTGAGCATGGTGCGGGAGCAAGCACCATGCCCCGCGGTGGGGGAGGGCAGTCAGAGTGTTTCCGGGCGGTTGCACACCCTCTGCGTCGCCCTGTTGTACAGGGTCGGAAGACGTTGCAGCGCGCTGAGGGGCAAACCGGTAGATATTCCCGTGCGCGGGCGGACGCTCGGTGGCCGCGCGACGGGTCGCTAGCGTCGGGTGCTGAACTGCATGCGGCGGCCGCCCATGGGGGGCATGACCGGCGGCGGA (double strand) [PdmxB BS2*]” bind (6 nM probe, bound as WT)?
**A.** binds

**Q.** Does “GGCGTGGCTCCTCCAGGGGTTACTGCCACTGGCCCTTCTTCACTTCGAGTTTGAGGCGCTCGGACACCAGCTCGAAGTGCCTGGGCGCGCTGGGCTCGGACGGACCCGCGGGGCCCACCGCGCGCACCGTCCACCGGTAGCTTCCCGCGGGTAGCACTGGCAGCTTCGCTTCCAGGCTGGTGACTGTCTGCGTGAAATTCGCGCGTTGCTCCTGCGCGCGCGACACTTCCACTTCATAACGTTCCGCGCCCCGTACAGCCTCCCAGGTCAGCTTCACCGGGCCCAGGTGCCCGTCCCGGTCGGGGCGTCGCTTCA (double strand) [PpmxA BS1*]” bind [1]?
**A.** binds more weakly

**Q.** Does “GGCGTGGCTCCTCCAGGGGTTACTGCCACTGGCCCTTCTTCACTTCGAGTTTGAGGCGCTCGGACACCAGCTCGAAGTGCCTGGGCGCGCTGGGCTCGGACGGACCCGCGGGGCCCACCGCGCGCACCGTCCACCGGTAGCTTCCCGCGGGTAGCACTGGCAGCTTCGCTTCCAGGCTGGTGACTGTCTGCGTGAAATTCGCGCGTTGCTCCTGCGCGCGCGACACTTCCACTTCATATTCTTCCGCGCCCCGTACAGCCTCCCAGGTCAGCTTCACCGGGCCCAGGTGCCCGTCCCGGTCGGGGCGTCGCTTCA (double strand) [PpmxA BS1*/BS2*]” bind (10 nM probe, 1.0 uM MrpC)?
**A.** no binding

**Q.** Does “GGCGTGGCTCCTCCAGGGGTTACTGCCACTGGCCCTTCTTCACTTCGAGTTTGAGGCGCTCGGACACCAGCTCGAAGTGCCTGGGCGCGCTGGGCTCGGACGGACCCGCGGGGCCCACCGCGCGCACCGTCCACCGGTAGCTTCCCGCGGGTAGCACTGGCAGCTTCGCTTCCAGGCTGGTGACTGTCTGCGTGAAGACGGCGCGTTGCTCCTGCGCGCGCGACACTTCCACTTCATAACGTTCCGCGCCCCGTACAGCCTCCCAGGTCAGCTTCACCGGGCCCAGGTGCCCGTCCCGGTCGGGGCGTCGCTTCA (double strand) [PpmxA WT]” bind (10 nM probe, one shifted band at 0.1 uM MrpC, two at 0.5-2.0 uM)?
**A.** binds

**Q.** Does “GGCGTGGCTCCTCCAGGGGTTACTGCCACTGGCCCTTCTTCACTTCGAGTTTGAGGCGCTCGGACACCAGCTCGAAGTGCCTGGGCGCGCTGGGCTCGGACGGACCCGCGGGGCCCACCGCGCGCACCGTCCACCGGTAGCTTCCCGCGGGTAGCACTGGCAGCTTCGCTTCCAGGCTGGTGACTGTCTGCGTGAAGACGGCGCGTTGCTCCTGCGCGCGCGACACTTCCACTTCATAACGTTCCGCGCCCCGTACAGCCTCCCAGGTCAGCTTCACCGGGCCCAGGTGCCGAATCCGGTCGGGGCGTCGCTTCA (double strand) [PpmxA BS3*]” bind (10 nM probe, 1.0 uM MrpC, behaved as WT (two bands))?
**A.** binds

**Q.** Does “GGCGTGGCTCCTCCAGGGGTTACTGCCACTGGCCCTTCTTCACTTCGAGTTTGAGGCGCTCGGACACCAGCTCGAAGTGCCTGGGCGCGCTGGGCTCGGACGGACCCGCGGGGCCCACCGCGCGCACCGTCCACCGGTAGCTTCCCGCGGGTAGCACTGGCAGCTTCGCTTCCAGGCTGGTGACTGTCTGCGTGAAGACGGCGCGTTGCTCCTGCGCGCGCGACACTTCCACTTCATATTCTTCCGCGCCCCGTACAGCCTCCCAGGTCAGCTTCACCGGGCCCAGGTGCCCGTCCCGGTCGGGGCGTCGCTTCA (double strand) [PpmxA BS2*]” bind [1]?
**A.** binds more weakly
